Results taken from PMC6886185.
These are yes or no findings as the source states them, for the method shown. In cells and extracts the contact can be indirect. Some results given as binding are weak or reduced against the parent protein; the word gives no strength. One block for each substance: values may come before it.

By UniProt entry, the sequences of proteins in these tests, tags left out. Where a name states a change or a piece, a line headed by the entry shows the natural chain unless it says otherwise. Chains listed by the source or under a name are the forms on record and can include a tag or linker. Residues count along the entry.
UniProt Q14240: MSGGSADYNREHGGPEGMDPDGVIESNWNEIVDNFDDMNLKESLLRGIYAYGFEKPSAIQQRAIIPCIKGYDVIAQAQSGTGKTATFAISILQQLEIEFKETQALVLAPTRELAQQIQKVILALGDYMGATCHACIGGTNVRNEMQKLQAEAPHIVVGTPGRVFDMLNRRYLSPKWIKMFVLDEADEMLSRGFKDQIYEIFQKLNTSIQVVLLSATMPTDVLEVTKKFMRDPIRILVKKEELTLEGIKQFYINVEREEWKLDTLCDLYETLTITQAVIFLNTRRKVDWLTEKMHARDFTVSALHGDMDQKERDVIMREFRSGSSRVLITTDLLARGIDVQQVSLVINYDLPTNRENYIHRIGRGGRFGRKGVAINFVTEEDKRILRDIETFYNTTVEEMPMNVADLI
4A2Δ1-13: residues 14-407 of Q14240
Flag-eIF4A2 7xM (Q14240, form named): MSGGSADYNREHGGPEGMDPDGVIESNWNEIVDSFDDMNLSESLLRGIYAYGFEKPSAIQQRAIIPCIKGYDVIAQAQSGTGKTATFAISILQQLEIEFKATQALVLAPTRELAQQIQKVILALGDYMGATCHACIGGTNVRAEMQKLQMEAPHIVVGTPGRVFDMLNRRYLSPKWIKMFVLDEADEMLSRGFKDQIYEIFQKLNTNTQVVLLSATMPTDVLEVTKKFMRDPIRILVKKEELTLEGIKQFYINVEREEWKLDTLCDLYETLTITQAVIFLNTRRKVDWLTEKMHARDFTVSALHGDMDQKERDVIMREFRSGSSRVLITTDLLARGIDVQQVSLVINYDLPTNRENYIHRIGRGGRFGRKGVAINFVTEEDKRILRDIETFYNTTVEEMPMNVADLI
UniProt A5YKK6: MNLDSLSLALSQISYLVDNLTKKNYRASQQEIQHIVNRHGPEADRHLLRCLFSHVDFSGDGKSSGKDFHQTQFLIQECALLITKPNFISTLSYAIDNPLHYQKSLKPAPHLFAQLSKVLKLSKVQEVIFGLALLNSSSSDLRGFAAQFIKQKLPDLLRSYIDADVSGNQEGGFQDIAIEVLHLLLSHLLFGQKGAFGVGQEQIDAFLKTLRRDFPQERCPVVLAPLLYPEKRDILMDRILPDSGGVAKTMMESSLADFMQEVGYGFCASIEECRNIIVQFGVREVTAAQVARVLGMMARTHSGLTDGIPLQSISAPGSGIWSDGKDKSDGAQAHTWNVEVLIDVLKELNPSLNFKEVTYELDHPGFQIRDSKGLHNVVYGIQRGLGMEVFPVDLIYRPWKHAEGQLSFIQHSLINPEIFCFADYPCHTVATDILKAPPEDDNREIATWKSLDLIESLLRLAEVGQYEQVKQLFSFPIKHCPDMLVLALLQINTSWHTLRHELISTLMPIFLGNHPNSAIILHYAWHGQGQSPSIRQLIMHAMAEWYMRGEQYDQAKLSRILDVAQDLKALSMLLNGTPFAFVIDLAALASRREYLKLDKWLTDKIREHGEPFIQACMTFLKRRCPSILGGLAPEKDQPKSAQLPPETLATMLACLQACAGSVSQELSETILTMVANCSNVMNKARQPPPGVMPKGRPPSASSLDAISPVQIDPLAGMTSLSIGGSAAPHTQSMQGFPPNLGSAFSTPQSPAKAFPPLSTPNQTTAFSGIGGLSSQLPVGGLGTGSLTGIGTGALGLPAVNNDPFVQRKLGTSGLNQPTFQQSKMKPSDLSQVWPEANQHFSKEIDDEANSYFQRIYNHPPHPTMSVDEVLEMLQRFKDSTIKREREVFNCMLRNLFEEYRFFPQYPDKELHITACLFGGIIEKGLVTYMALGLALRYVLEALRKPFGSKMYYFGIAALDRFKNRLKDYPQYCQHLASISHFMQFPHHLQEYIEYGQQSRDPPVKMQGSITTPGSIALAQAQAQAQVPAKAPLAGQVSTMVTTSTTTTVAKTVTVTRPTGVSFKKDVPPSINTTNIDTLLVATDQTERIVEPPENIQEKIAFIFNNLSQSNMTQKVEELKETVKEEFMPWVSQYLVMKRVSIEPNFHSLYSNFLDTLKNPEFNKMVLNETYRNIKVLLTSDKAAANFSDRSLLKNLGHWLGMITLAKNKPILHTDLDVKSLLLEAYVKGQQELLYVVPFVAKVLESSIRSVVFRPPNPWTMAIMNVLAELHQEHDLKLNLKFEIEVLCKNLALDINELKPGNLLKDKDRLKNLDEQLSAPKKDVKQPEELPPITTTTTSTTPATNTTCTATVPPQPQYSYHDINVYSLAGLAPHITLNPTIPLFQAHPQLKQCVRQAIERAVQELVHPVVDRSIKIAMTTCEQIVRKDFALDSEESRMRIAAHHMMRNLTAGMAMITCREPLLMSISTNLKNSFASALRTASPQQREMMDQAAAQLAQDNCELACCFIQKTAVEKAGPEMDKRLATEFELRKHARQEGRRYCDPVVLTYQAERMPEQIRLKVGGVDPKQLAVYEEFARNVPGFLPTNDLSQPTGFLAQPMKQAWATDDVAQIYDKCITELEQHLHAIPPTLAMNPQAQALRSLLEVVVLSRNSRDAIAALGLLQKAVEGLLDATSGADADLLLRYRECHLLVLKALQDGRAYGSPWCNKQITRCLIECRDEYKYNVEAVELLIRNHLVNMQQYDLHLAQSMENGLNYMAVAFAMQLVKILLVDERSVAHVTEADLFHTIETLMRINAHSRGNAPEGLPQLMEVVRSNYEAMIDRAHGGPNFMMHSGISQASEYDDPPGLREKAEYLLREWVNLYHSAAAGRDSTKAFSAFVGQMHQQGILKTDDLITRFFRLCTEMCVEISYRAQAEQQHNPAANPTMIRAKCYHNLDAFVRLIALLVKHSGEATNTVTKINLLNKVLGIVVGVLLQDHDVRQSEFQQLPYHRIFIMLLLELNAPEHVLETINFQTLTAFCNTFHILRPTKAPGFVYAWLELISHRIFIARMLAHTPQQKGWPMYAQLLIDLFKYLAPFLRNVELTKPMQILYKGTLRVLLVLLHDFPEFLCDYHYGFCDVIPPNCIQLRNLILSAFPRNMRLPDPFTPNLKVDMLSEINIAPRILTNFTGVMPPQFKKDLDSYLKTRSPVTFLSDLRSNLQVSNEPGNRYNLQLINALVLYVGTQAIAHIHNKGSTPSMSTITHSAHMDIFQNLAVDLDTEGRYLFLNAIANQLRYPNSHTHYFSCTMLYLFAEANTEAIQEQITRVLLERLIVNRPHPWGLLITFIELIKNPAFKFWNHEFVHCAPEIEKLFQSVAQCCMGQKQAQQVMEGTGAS
UniProt Q9UIV1: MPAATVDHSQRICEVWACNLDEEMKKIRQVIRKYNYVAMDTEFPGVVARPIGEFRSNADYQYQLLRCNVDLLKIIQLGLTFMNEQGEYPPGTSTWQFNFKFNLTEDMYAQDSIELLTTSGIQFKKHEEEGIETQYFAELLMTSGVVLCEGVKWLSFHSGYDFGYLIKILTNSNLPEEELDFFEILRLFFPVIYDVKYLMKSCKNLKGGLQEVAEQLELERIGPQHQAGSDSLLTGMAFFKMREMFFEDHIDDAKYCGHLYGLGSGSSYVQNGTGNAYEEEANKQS
UniProt Q04637: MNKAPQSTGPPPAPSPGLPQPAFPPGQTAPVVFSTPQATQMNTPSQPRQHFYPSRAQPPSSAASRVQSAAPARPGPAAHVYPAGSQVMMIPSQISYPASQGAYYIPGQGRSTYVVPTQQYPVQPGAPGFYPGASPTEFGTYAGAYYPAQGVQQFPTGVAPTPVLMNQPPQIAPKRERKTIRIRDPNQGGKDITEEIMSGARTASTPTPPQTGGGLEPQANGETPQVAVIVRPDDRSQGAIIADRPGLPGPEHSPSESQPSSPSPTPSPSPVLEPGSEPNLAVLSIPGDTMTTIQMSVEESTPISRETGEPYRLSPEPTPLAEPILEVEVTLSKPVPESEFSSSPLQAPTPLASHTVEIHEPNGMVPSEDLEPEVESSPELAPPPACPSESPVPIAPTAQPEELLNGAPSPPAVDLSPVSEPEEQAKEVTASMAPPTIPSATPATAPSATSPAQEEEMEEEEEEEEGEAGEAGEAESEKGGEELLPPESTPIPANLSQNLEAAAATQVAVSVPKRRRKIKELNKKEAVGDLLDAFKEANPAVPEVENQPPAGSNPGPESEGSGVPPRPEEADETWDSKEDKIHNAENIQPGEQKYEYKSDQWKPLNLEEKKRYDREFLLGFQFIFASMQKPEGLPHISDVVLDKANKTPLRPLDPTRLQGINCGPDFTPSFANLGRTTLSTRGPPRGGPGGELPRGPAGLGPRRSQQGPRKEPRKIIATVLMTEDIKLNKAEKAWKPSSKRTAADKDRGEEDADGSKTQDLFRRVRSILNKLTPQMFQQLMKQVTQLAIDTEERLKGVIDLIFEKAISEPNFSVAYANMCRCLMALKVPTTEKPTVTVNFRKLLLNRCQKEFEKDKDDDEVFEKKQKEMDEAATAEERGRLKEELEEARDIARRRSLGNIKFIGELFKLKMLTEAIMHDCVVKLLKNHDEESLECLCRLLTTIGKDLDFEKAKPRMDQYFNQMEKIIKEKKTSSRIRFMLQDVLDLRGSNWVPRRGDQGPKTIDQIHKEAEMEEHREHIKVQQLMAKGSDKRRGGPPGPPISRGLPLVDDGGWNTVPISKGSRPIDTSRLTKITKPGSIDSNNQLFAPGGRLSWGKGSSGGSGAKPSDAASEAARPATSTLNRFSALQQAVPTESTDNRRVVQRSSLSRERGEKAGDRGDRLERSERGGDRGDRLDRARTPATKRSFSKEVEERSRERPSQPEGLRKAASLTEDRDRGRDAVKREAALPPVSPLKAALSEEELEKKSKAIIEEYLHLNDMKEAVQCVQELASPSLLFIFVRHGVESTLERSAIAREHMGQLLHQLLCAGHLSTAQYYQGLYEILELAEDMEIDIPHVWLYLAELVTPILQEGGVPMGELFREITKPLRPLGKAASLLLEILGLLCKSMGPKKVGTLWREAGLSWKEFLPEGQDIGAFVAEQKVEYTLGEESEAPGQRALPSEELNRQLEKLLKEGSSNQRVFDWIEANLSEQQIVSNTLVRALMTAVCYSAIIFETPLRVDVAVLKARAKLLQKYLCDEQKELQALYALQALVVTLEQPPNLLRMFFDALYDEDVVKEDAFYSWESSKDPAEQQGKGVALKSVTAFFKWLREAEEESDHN

Key:
[1] = molecular target: eIF4A2 (endogenous) (human (endogenous in HeLa)) (UniProt Q14240); assay: co-IP; IPs of endogenous proteins with and without RNaseA digestion; Western blot confirmation of selected LC-MS/MS hits
[2] = molecular target: eIF4A2 (endogenous) (human (endogenous in HeLa)) (UniProt Q14240); assay: co-IP; RNaseA-treated IPs of endogenous proteins from gel filtration fractions of HeLa cytoplasmic lysate enriched in CNOT1 and eIF4A2; 5% sucrose, 0.1% CHAPS, 20 mM HEPES/NaOH, 5 mM DTT, 50 mM NaCl, pH 7.0
[3] = molecular target: CNOT1 (human (endogenous in HeLa)) (UniProt A5YKK6); assay: as above
Flag-eIF4A2 [4] = molecular target: Flag-eIF4A2 (UniProt Q14240); assay: co-IP; as a1, but at unphysiologically high levels of eIF4A2 overexpression (Figure S1D)
4A2Δ1-13 = 4A2Δ1-13 (UniProt Q14240); assay: co-IP; Flag immunoprecipitation of tagged proteins from transfected cells (HEK293, 48 h after transfection in Fig. 1b), elution with 200 ng/ul 3xFlag peptide; Western blot for endogenous eIF4G
Flag-eIF4A2 [5] = molecular target: Flag-eIF4A2 (UniProt Q14240); assay: as above
Flag-eIF4A2 7xM = Flag-eIF4A2 7xM (UniProt Q14240); assay: as above

binding [1]: binds | binding [2]: binds
Substance: CNOT1 (from UniProt A5YKK6 1-2376)

binding [1]: binds
Substance: CNOT7 (from UniProt Q9UIV1 1-285)

binding [3]: binds
Substance: eIF4A2 (endogenous) (from UniProt Q14240 1-407)

binding (Flag-eIF4A2 [4]): binds | binding (4A2Δ1-13): binds weakly | binding (Flag-eIF4A2 [5]): binds weakly | binding (Flag-eIF4A2 7xM): binds
Substance: eIF4G (from UniProt Q04637 1-1599)
